Measurements reported in PubChem BioAssay AID1671195 (Yale University, 2021).

- Screen: 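Genes whose knockdown alters LDL uptake in liver cancer cells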 (primary screen)
- Cells: human Huh7 hepatoma cells
- Reagents: siRNA pool against human genes, 18 nM
- Time to read-out: about 2 to 2.5 days of knockdown, then 8 h LDL uptake
- Conditions: DiI-labelled LDL at 30 µg/ml for 8 h, in lipoprotein-deficient serum medium
- Read-out: 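Per-cell DiI-LDL intensity by automated imaging; well means scaled to the plate median and given as a robust z-score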
- Reading the numbers: robust z-score: higher = more LDL uptake after knockdown
- Hit rule: 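a gene counts as active if at least two replicate z-scores exceed ±2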
This is one part, drawn at random, of about 22,000 reagents. About 1,510 of them (6.9%) count as active. 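Active includes knockdowns raising or lowering LDL uptake; positive z-scores mean more uptake, negative mean less.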 No sequences are given here.

robust z-score, replicate 1	robust z-score, replicate 2	robust z-score, replicate 3	outcome	gene knocked down
-0.17	-0.297	1.16	inactive	TMEM248 (transmembrane protein 248)
-0.475	-0.341	-0.401	inactive	IYD (iodotyrosine deiodinase)
-1.06	-1.07	-0.671	inactive	ALPP (alkaline phosphatase, placental)
0.271	1.47	1.57	inactive	HOXA6 (homeobox A6)
-0.12	-0.211	-0.812	inactive	ANKDD1A (ankyrin repeat and death domain containing 1A)
0.261	1.94	2.44	inactive	SH3GLB2 (SH3 domain containing GRB2 like, endophilin B2)
0.43	0.866	0.817	inactive	GJA3 (gap junction protein alpha 3)
0.541	0.173	1.31	inactive	ADAMTS12 (ADAM metallopeptidase with thrombospondin type 1 motif 12)
-0.619	-0.84	-1.21	inactive	RTN1 (reticulon 1)
0.562	1.12	0.537	inactive	TMEM213 (transmembrane protein 213)
-0.293	2.4	1.36	inactive	CIDEB (cell death inducing DFFA like effector b)
-1.47	-0.647	-0.629	inactive	DCAF12L1 (DDB1 and CUL4 associated factor 12 like 1)
0.264	-0.766	-0.514	inactive	SMARCAD1 (SNF2 related chromatin remodeling ATPase with DExD box 1)
-2.46	-2.43	-2.52	active	GIPC3 (GIPC PDZ domain containing family member 3)
0.033	1.03	0.502	inactive	AMOTL2 (angiomotin like 2)
0.568	0.78	0.992	inactive	LOC441353 (retired record)
-0.573	-0.654	-1.41	inactive	COL6A6 (collagen type VI alpha 6 chain)
1.27	0.989	0.821	inactive	STAT5A (signal transducer and activator of transcription 5A)
-1.49	-1.6	-1.94	inactive	HESX1 (HESX homeobox 1)
0.827	0.422	0.93	inactive	TMEM190 (transmembrane protein 190)
-0.638	-1.32	-0.602	inactive	DIPK2B (divergent protein kinase domain 2B)
-1.35	-1.54	-0.819	inactive	ADPRH (ADP-ribosylarginine hydrolase)
-0.512	-1.76	0.0274	inactive	C1S (complement C1s)
-2.32	-2.66	-2.32	active	SYT10 (synaptotagmin 10)
-1.8	-1.86	-2.04	inactive	FCN2 (ficolin 2)
1.61	0.0302	0.978	inactive	UBE2G2 (ubiquitin conjugating enzyme E2 G2)
0.395	0.115	-0.395	inactive	SND1 (staphylococcal nuclease and tudor domain containing 1)
-1.09	-1.27	-0.87	inactive	TERT (telomerase reverse transcriptase)
-0.0954	0.797	0.068	inactive	MC2R (melanocortin 2 receptor)
-0.478	0.113	-0.848	inactive	VLDLR (very low density lipoprotein receptor)
-1.23	-1.22	-1.65	inactive	LINC00608 (long independently transcribed non-coding RNA 608)
0.366	0.317	0.453	inactive	ADAM12 (ADAM metallopeptidase domain 12)
-0.556	-1.26	-0.993	inactive	WFDC6 (WAP four-disulfide core domain 6)
1.26	0.874	0.149	inactive	NUP214 (nucleoporin 214)
-0.17	-0.306	-0.68	inactive	LOC441104 (retired record)
-0.183	-1.35	0.581	inactive	MLXIP (MLX interacting protein)
1.39	1.76	2.24	inactive	OR2M2 (olfactory receptor family 2 subfamily M member 2)
1.06	1.95	1.7	inactive	PLAAT5 (phospholipase A and acyltransferase 5)
-0.29	-0.261	0.0173	inactive	IGDCC4 (immunoglobulin superfamily DCC subclass member 4)
-0.0444	-0.121	-0.59	inactive	CAV3 (caveolin 3)
-2.2	-1.73	-1.81	inactive	LDLRAD3 (low density lipoprotein receptor class A domain containing 3)
0.28	0.435	0.617	inactive	FKBP8 (FKBP prolyl isomerase 8)
2.47	0.978	1.96	active	ENO2 (enolase 2)
1.4	0.822	0.912	inactive	CCDC33 (coiled-coil domain containing 33)
0.0478	0.238	0.873	inactive	MPPE1 (metallophosphoesterase 1)
-0.232	-0.425	-0.433	inactive	PEX19 (peroxisomal biogenesis factor 19)
-1.06	-1.3	-0.687	inactive	HERC2P6 (HERC2 pseudogene 6)
0.551	0.0103	-1	inactive	MAB21L2 (mab-21 like 2)
0.735	-0.335	-0.305	inactive	CYB5D1 (cytochrome b5 domain containing 1)
-0.886	-2.5	-2.25	active	ITGB6 (integrin subunit beta 6)
-1.89	-1.72	-0.0666	inactive	TXLNG (taxilin gamma)
-0.952	-1.85	-0.859	inactive	FGFBP1 (fibroblast growth factor binding protein 1)
0.0152	0.172	-0.64	inactive	DTWD1 (DTW motif tRNA-uridine aminocarboxypropyltransferase 1)
-0.467	-1.42	0.361	inactive	NKIRAS1 (NFKB inhibitor interacting Ras like 1)
-0.703	-0.773	-0.656	inactive	COL23A1 (collagen type XXIII alpha 1 chain)
-0.395	-0.444	-0.312	inactive	LCN6 (lipocalin 6)
-0.266	0.0232	-0.201	inactive	ITGB3 (integrin subunit beta 3)
5.87	3.86	4.86	active	GPR50 (G protein-coupled receptor 50)
-1.6	-1.75	-1.86	inactive	RRM1 (ribonucleotide reductase catalytic subunit M1)
-1.21	-0.291	-0.996	inactive	ZNF208 (zinc finger protein 208)
-1.12	-1.2	-1.17	inactive	LOC401606 (retired record)
-0.143	-0.269	0.321	inactive	TMEM205 (transmembrane protein 205)
-0.0592	-0.211	0.163	inactive	PABIR2 (PABIR family member 2)
-0.0163	0.307	0.514	inactive	STPG3 (sperm-tail PG-rich repeat containing 3)
0.0867	-0.00755	0.255	inactive	MYL12B (myosin light chain 12B)
-0.867	-0.0821	-0.298	inactive	ANKRD40 (ankyrin repeat domain 40)
-1.85	-2.2	-1.81	active	PYDC1 (pyrin domain containing 1)
1.62	2.56	1.2	inactive	LRG1 (leucine rich alpha-2-glycoprotein 1)

Entries listed so far whose gene name begins with R or r (2):
robust z-score, replicate 1	robust z-score, replicate 2	robust z-score, replicate 3	outcome	gene knocked down
-0.619	-0.84	-1.21	inactive	RTN1 (reticulon 1)
-1.6	-1.75	-1.86	inactive	RRM1 (ribonucleotide reductase catalytic subunit M1)
